For this assay, the target named is NF-YC (in vitro translated) (human) (UniProt Q13952). Briefly: native gel or EMSA; in vitro translated NF-YAl, NF-YAs or NF-YAx combined with in vitro translated NF-YB and NF-YC; 32P-labelled double-stranded inverted CCAAT-box oligonucleotide, room temperature, 20 min; read-out is the DNA-bound NF-Y complex; also titrations of NF-YAx against constant NF-YAl and vice versa (0-4 μl).

Protein sequences, listed by entry. Tags and fused reporters are not part of them. Lines headed by an entry give the natural chain unless they say otherwise; changes in a name come on top.
UniProt Q13952: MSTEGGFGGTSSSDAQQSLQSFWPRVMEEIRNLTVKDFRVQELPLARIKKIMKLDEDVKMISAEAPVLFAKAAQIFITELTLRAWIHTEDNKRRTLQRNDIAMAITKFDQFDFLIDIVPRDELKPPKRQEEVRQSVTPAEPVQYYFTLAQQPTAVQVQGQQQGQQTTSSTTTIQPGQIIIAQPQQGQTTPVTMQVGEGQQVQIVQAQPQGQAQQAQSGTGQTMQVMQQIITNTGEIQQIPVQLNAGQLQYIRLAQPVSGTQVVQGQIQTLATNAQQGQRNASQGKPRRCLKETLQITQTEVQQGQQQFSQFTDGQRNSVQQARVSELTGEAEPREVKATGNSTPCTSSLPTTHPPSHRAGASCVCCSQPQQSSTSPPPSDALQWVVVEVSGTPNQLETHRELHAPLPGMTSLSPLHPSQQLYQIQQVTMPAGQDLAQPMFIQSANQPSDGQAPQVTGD

No constants are given. Whether binding was seen depends on the method and setting. Binding calls can cover weak binding; strength is not graded here.

“NF-YAl, fully-spliced long-form nuclear transcription factor YA (in vitro translated) (from UniProt P23511-1 1-347)”: the binding result is “binds”.

Values taken from publication PMC6896337.
